# Experimental data: article doi:10.1101/2020.05.20.107664
# Target: FLAG-STING, in reconstituted Sting-/- MEFs (mouse)
# Test: affinity purification with mass spectrometry
row,binding,Binder
1,binds,"Clptm1l (protein, UniProt Q8BXA5 1-539) MWSGRSSFTSLVVGVFLVYVVHTCWVMYGIVYTRPCSGDSNCIQPYLALRPKLQLSVYTTTRSSLGAENNVDLILNVEDFDVDSKFERTVNVSVPKKTRNNGTLYAYIFLHHAGILPWQDGKQVHVVSTLTTYMIPKPEEINLLTGESATQQQIEAEKKPSNALDEPVSHWRPRLTLNVMVDDFVFDGSSLPADVHRYMKMIQLGKTVHYLPILFIDQLSNRVKDLMVINRSTTELPLTVSYDKISLGRLRFWIHMQDAVYSLQQFGFSEKDADELKGIFVDTNLYLLALTFFVAAFHLLFDFLAFKSDISFWKKKKSMIGMSTKAVLWRCFSTVVIFLFLLDEQTSLLVLIPAGVGAAIELWKVKKALKITVAWRGLRPVFQFGTHSESERKTEKYDAQAMKYLSYLLYPLCVGGAVYSLLNIKYKSWYSWLINSFVNGVYAFGFLFMLPQLFVNYKMKSVAHLPWKAFTYKAFNTFIDDVFAFIITMPTSHRLACFRDDVVFLVYLYQRWLYPVDKSRVNEFGESYEEQPKRKPHPD"
2,binds,"Ablim1 (protein, UniProt Q8K4G5 1-861) MPSLLGLKCLGKLCSSEIGKVPSPERASLRNSHRRLLIEDLSVPETPDPAHRRRGTVIHLVYLYSAGCGPPELRFSSYDPSVAHPQDPHHSSEKPVIHCHKCGEPCKGEVLRVQTKHFHIKCFTCKVCGCDLAQGGFFIKNGDYLCTLDYQRMYGTRCHGCGEFVEGEVVTALGKTYHPNCFACTICKRPFPPGDRVTFNGRDCLCQLCAQPMSSSPKEASCSSNCAGCGRDIKNGQALLALDKQWHLGCFKCKSCGKVLTGEYISKDGSPYCEKDYQGLFGVKCEACHQFITGKVLEAGDKHYHPSCARCSRCNQMFTEGEEMYLQGSTVWHPDCKQSTKTEEKLRPPNIPRSSSDFFYPKSLIRRTGRSPALQLLSPPCLTNSNKNPRQPTRTSSESIYSRPGSSIPGSPGHTIYAKVDNEILDYKDLAAIPKVKAIYDIERPDLITYEPFYTSGYEDKQERQSLGESPRTLSPTPSAEGYQDVRDRMIHRSTSQGSINSPVYSRHSYTPTTSRSPQHFHRPELLSPGVHRWSPLRTSSFSSTHSDSRPNPPFRHHFLPHVKGNEPSSGRNSPLPYRPDSRPLTPTYAQAPKHFHVPDQGINIYRKPPIYKQHAALAAQSKASEDIIKFSKFPAAQAPDPNEIPKIETDHWPGPPSLAAVGTDPRRRSSGREEDEEELLRRRQLQEEQLMKLNSGLGQLILKEEMEKESRERASLASRYDSPLHSASHAPSSKTSSLPGYGKNGLHRPVSTDFAQYNSYGDISGGVRDYQTLPDGHMPAVRMDRGVSMPNMLEPKIFPYEMLMVTNRGRNKILRDVDRTRLERHLAPEVFWEIFGMSIQEFDKLPLWRRNDMKKKAKLF"

# No constants are given. Whether binding was seen depends on the method and setting. Binding seen in cells or lysates may run through a third protein. A yes stands for co-enrichment or nearness to the bait. Other partners may have been found.
